Reference: paper doi:10.1101/2022.06.21.497044 (bioRxiv, 2022)
Construct, isoform or probe ends are uncertain for at least one entry. At least one verdict rests on a figure or table, not on a statement of the authors. For part of these data: Where a protein sequence is shown, tags need not be part of it.

How the values were obtained:
Experiment in all cases: EMSA
[1] = target: T1, GST-ABI5 (Arabidopsis thaliana) (UniProt Q9SJN0); conditions: residues 1-442
T1 sequence (looked up): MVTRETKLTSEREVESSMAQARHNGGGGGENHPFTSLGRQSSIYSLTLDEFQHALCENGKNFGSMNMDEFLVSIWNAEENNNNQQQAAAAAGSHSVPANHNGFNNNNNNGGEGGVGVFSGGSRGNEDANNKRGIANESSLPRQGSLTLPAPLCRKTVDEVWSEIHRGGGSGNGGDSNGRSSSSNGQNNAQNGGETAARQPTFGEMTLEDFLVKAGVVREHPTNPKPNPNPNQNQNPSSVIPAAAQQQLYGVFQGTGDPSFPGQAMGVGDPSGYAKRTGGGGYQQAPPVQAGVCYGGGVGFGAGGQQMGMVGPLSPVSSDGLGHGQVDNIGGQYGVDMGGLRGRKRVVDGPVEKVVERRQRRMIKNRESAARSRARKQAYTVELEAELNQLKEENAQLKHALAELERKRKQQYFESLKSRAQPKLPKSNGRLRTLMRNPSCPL

GST-ABI5 + BBX31 (miP1a) = conditions: supershift vs ABI5 alone
GST-ABI5 + BBX30 (miP1b) = conditions: supershift vs ABI5 alone

Measured: binding result

AATAAAGTCAGACACGTGGCATGTCACCAA (double strand) [EM6 promoter probe]
binds: [1] | GST-ABI5 + BBX31 (miP1a) | GST-ABI5 + BBX30 (miP1b)

GCAAGAAACAGAAGAGAGACACGTGCAGGACACGTGTCGTCCGCAGCCGAACGGA (double strand) [ABI5 promoter probe]
binds: [1] | GST-ABI5 + BBX31 (miP1a) | GST-ABI5 + BBX30 (miP1b)
